Data on twelve molecules can be found in patent publication US12729225B2, “Non-canonical SWI/SNF complex and uses thereof” (Dana-Farber Cancer Institute, Inc., priority 2018, dated 2026).

The labels stand for the following.
B1: ECHS1 (protein, UniProt P30084 28-290, looked up)
Enoyl-CoA hydratase, …: ASGANFEYIIAEKRGKNNTVGLIQLNRPKALNALCDGLIDELNQALKTFEEDPAVGAIVLTGGDKAFAAGADIKEMQNLSFQDCYSSKFLKHWDHLTQVKKPVIAAVNGYAFGGGCELAMMCDIIYAGEKAQFAQPEILIGTIPGAGGTQRLTRAVGKSLAMEMVLTGDRISAQDAKQAGLVSKICPVETLVEEAIQCAEKIASNSKIVVAMAKESVNAAFEMTLTEGSKLEKKLFYSTFATDDRKEGMTAFVEKRKANFKDQ
B2: HMGB1P1 (protein, UniProt B2RPK0 1-211, looked up)
High mobility group protein …: MGKGDPKKPRGKMSSYAFFVQTCREEHKKKHSDASVNFSEFSNKCSERWKTMSAKEKGKFEDMAKADKTHYERQMKTYIPPKGETKKKFKDPNAPKRPPSAFFLFCSEYHPKIKGEHPGLSIGDVAKKLGEMWNNTAADDKQPGEKKAAKLKEKYEKDIAAYQAKGKPEAAKKGVVKAEKSKKKKEEEEDEEDEEDEEEEDEEDEEDDDDE
B3: SFXN2 (protein, UniProt Q96NB2 1-322, looked up)
Sideroflexin-2: MEADLSGFNIDAPRWDQRTFLGRVKHFLNITDPRTVFVSERELDWAKVMVEKSRMGVVPPGTQVEQLLYAKKLYDSAFHPDTGEKMNVIGRMSFQLPGGMIITGFMLQFYRTMPAVIFWQWVNQSFNALVNYTNRNAASPTSVRQMALSYFTATTTAVATAVGMNMLTKKAPPLVGRWVPFAAVAAANCVNIPMMRQQELIKGICVKDRNENEIGHSRRAAAIGITQVVISRITMSAPGMILLPVIMERLEKLHFMQKVKVLHAPLQVMLSGCFLIFMVPVACGLFPQKCELPVSYLEPKLQDTIKAKYGELEPYVYFNKGL
B4: HNRNPH3 (protein, UniProt P31942 1-346, looked up)
Heterogeneous nuclear …: MDWVMKHNGPNDASDGTVRLRGLPFGCSKEEIVQFFQGLEIVPNGITLTMDYQGRSTGEAFVQFASKEIAENALGKHKERIGHRYIEIFRSSRSEIKGFYDPPRRLLGQRPGPYDRPIGGRGGYYGAGRGSMYDRMRRGGDGYDGGYGGFDDYGGYNNYGYGNDGFDDRMRDGRGMGGHGYGGAGDASSGFHGGHFVHMRGLPFRATENDIANFFSPLNPIRVHIDIGADGRATGEADVEFVTHEDAVAAMSKDKNNMQHRYIELFLNSTPGGGSGMGGSGMGGYGRDGMDNQGGYGSVGRMGMGNNYSGGYGTPDGLGGYGRGGGGSGGYYGQGGMSGGGWRGMY
B5: HNRNPCL3 (protein, UniProt B7ZW38 1-293, looked up)
Heterogeneous nuclear …: MASNVTNKMDPHSMNSRVFIGNLNTLVVKKSDVEAIFSKYGKIAGCSVHKGFAFVQYDKEKNARAAVAGEDGRMIASQVVDINLAAEPKVNRGNAGVKRSAAEMYGSSFDLDYNLQRDYYGGMYSFPARVPPPPPIALAVVPSKRQRISGNTSRRGKSGFNSKSGKRGSSKSGKLKGDDLQAIKQELTQIKQKVDSLLENLEKIEKEHCKQGVEVKNAKSEEEQTSSSSKKDKTHVKMESEGGADDSVEEGDLLCDDDNEDQGDNQLELIKDDEKGAEEGEDDRDRANGQDDS
B6: PGRMC2 (protein, UniProt O15173 1-223, looked up)
Membrane-associated …: MAAGDGDVKLGTLGSGSESSNDGGSESPGDAGAAAEGGGWAAAALALLTGGGEMLLNVALVALVLLGAYRLWVRWGRRGLGAGAGAGEESPATSLPRMKKRDFSLEQLRQYDGSRNPRILLAVNGKVFDVTKGSKFYGPAGPYGIFAGRDASRGLATFCLDKDALRDEYDDLSDLNAVQMESVREWEMQFKEKYDYVGRLLKPGEEPSEYTDEEDTKDHNKQD
B7: POLDIP3 (protein, UniProt Q9BY77 2-421, looked up)
Polymerase delta-interacting …: ADISLDELIRKRGAAAKGRLNARPGVGGVRSRVGIQQGLLSQSTRTATFQQRFDARQKIGLSDARLKLGVKDAREKLLQKDARFRIKGKVQDAREMLNSRKQQTTVPQKPRQVADAREKISLKRSSPAAFINPPIGTVTPALKLTKTIQVPQQKAMAPLHPHPAGMRINVVNNHQAKQNLYDLDEDDDGIASVPTKQMKFAASGGFLHHMAGLSSSKLSMSKALPLTKVVQNDAYTAPALPSSIRTKALTNMSRTLVNKEEPPKELPAAEPVLSPLEGTKMTVNNLHPRVTEEDIVELFCVCGALKRARLVHPGVAEVVFVKKDDAITAYKKYNNRCLDGQPMKCNLHMNGNVITSDQPILLRLSDSPSMKKESELPRRVNSASSSNPPAEVDPDTILKALFKSSGASVTTQPTEFKIKL
B8: DNAJC4 (protein, UniProt Q9NNZ3 1-241, looked up)
DnaJ homolog subfamily C …: MPPLLPLRLCRLWPRNPPSRLLGAAAGQRSRPSTYYELLGVHPGASTEEVKRAFFSKSKELHPDRDPGNPSLHSRFVELSEAYRVLSREQSRRSYDDQLRSGSPPKSPRTTVHDKSAHQTHSSWTPPNAQYWSQFHSVRPQGPQLRQQQHKQNKQVLGYCLLLMLAGMGLHYIAFRKVKQMHLNFMDEKDRIITAFYNEARARARANRGILQQERQRLGQRQPPPSEPTQGPEIVPRGAGP
B9: HK1 (protein, UniProt P19367 1-917, looked up)
Hexokinase-1: MIAAQLLAYYFTELKDDQVKKIDKYLYAMRLSDETLIDIMTRFRKEMKNGLSRDFNPTATVKMLPTFVRSIPDGSEKGDFIALDLGGSSFRILRVQVNHEKNQNVHMESEVYDTPENIVHGSGSQLFDHVAECLGDFMEKRKIKDKKLPVGFTFSFPCQQSKIDEAILITWTKRFKASGVEGADVVKLLNKAIKKRGDYDANIVAVVNDTVGTMMTCGYDDQHCEVGLIIGTGTNACYMEELRHIDLVEGDEGRMCINTEWGAFGDDGSLEDIRTEFDREIDRGSLNPGKQLFEKMVSGMYLGELVRLILVKMAKEGLLFEGRITPELLTRGKFNTSDVSAIEKNKEGLHNAKEILTRLGVEPSDDDCVSVQHVCTIVSFRSANLVAATLGAILNRLRDNKGTPRLRTTVGVDGSLYKTHPQYSRRFHKTLRRLVPDSDVRFLLSESGSGKGAAMVTAVAYRLAEQHRQIEETLAHFHLTKDMLLEVKKRMRAEMELGLRKQTHNNAVVKMLPSFVRRTPDGTENGDFLALDLGGTNFRVLLVKIRSGKKRTVEMHNKIYAIPIEIMQGTGEELFDHIVSCISDFLDYMGIKGPRMPLGFTFSFPCQQTSLDAGILITWTKGFKATDCVGHDVVTLLRDAIKRREEFDLDVVAVVNDTVGTMMTCAYEEPTCEVGLIVGTGSNACYMEEMKNVEMVEGDQGQMCINMEWGAFGDNGCLDDIRTHYDRLVDEYSLNAGKQRYEKMISGMYLGEIVRNILIDFTKKGFLFRGQISETLKTRGIFETKFLSQIESDRLALLQVRAILQQLGLNSTCDDSILVKTVCGVVSRRAAQLCGAGMAAVVDKIRENRGLDRLNVTVGVDGTLYKLHPHFSRIMHQTVKELSPKCNVSFLLSEDGSGKGAALITAVGVRLRTEASS
B10: RPF2 (protein, UniProt Q9H7B2 1-306, looked up)
Ribosome production factor 2 …: MDTLDRVVKPKTKRAKRFLEKREPKLNENIKNAMLIKGGNANATVTKVLKDVYALKKPYGVLYKKKNITRPFEDQTSLEFFSKKSDCSLFMFGSHNKKRPNNLVIGRMYDYHVLDMIELGIENFVSLKDIKNSKCPEGTKPMLIFAGDDFDVTEDYRRLKSLLIDFFRGPTVSNIRLAGLEYVLHFTALNGKIYFRSYKLLLKKSGCRTPRIELEEMGPSLDLVLRRTHLASDDLYKLSMKMPKALKPKKKKNISHDTFGTTYGRIHMQKQDLSKLQTRKMKGLKKRPAERITEDHEKKSKRIKKN
B11: ALDH2 (protein, UniProt P05091 18-517, looked up)
Aldehyde dehydrogenase, …: SAAATQAVPAPNQQPEVFCNQIFINNEWHDAVSRKTFPTVNPSTGEVICQVAEGDKEDVDKAVKAARAAFQLGSPWRRMDASHRGRLLNRLADLIERDRTYLAALETLDNGKPYVISYLVDLDMVLKCLRYYAGWADKYHGKTIPIDGDFFSYTRHEPVGVCGQIIPWNFPLLMQAWKLGPALATGNVVVMKVAEQTPLTALYVANLIKEAGFPPGVVNIVPGFGPTAGAAIASHEDVDKVAFTGSTEIGRVIQVAAGSSNLKRVTLELGGKSPNIIMSDADMDWAVEQAHFALFFNQGQCCCAGSRTFVQEDIYDEFVERSVARAKSRVVGNPFDSKTEQGPQVDETQFKKILGYINTGKQEGAKLLCGGGIAADRGYFIQPTVFGDVQDGMTIAKEEIFGPVMQILKFKTIEEVVGRANNSTYGLAAAVFTKDLDKANYLSQALQAGTVWVNCYDVFGAQSPFGGYKMSGSGRELGEYGLQAYTEVKTVTVKVPQKNS
B12: TRIM28 (protein, UniProt Q13263 2-835, looked up)
Transcription intermediary …: AASAAAASAAAASAASGSPGPGEGSAGGEKRSTAPSAAASASASAAASSPAGGGAEALELLEHCGVCRERLRPEREPRLLPCLHSACSACLGPAAPAAANSSGDGGAAGDGTVVDCPVCKQQCFSKDIVENYFMRDSGSKAATDAQDANQCCTSCEDNAPATSYCVECSEPLCETCVEAHQRVKYTKDHTVRSTGPAKSRDGERTVYCNVHKHEPLVLFCESCDTLTCRDCQLNAHKDHQYQFLEDAVRNQRKLLASLVKRLGDKHATLQKSTKEVRSSIRQVSDVQKRVQVDVKMAILQIMKELNKRGRVLVNDAQKVTEGQQERLERQHWTMTKIQKHQEHILRFASWALESDNNTALLLSKKLIYFQLHRALKMIVDPVEPHGEMKFQWDLNAWTKSAEAFGKIVAERPGTNSTGPAPMAPPRAPGPLSKQGSGSSQPMEVQEGYGFGSGDDPYSSAEPHVSGVKRSRSGEGEVSGLMRKVPRVSLERLDLDLTADSQPPVFKVFPGSTTEDYNLIVIERGAAAAATGQPGTAPAGTPGAPPLAGMAIVKEEETEAAIGAPPTATEGPETKPVLMALAEGPGAEGPRLASPSGSTSSGLEVVAPEGTSAPGGGPGTLDDSATICRVCQKPGDLVMCNQCEFCFHLDCHLPALQDVPGEEWSCSLCHVLPDLKEEDGSLSLDGADSTGVVAKLSPANQRKCERVLLALFCHEPCRPLHQLATDSTFSLDQPGGTLDLTLIRARLQEKLSPPYSSPQEFAQDVGRMFKQFNKLTEDKADVQSIIGLQRFFETRMNEAFGDTKFSAVLVEPPPMSLPGAGLSSQELSGGPGDGP

For one data set, the system named is mSWI/SNF complexes. As to the kind of experiment: mSWI/SNF complex purification with HA-tagged baits and mass spectrometry (peptide counts). Also on record: species or system human. The settings on record: 293_HA-BRD7 bait purification, mass spectrometry; total peptide count per identified protein.
Turning to B1, the Total is 1.

The molecule B2 had a Total of 1.

Consider B3, for which the Total came to 1.

Molecule B4 gave a Total of 1.

The molecule B5 gave a Total of 1.

Turning to B6, the Total came to 1.

Regarding B7, the Total turned out to be 1.

B8 returned a Total of 1.

In turn, B9 displayed a Total of 1.

B10 displayed a Total of 1.

Regarding B11, the Total is given as 1.

On to B12, for which the Total is recorded as 1.

The data set is the same for the next values; noted with them: 293_HA-BRD7 bait purification, mass spectrometry; unique peptide count per identified protein.
B1 registered a Unique of 1.

The molecule B2 showed a Unique of 1.

B3: the Unique amounted to 1.

With B4, the Unique came out at 1.

For B5, the Unique amounted to 1.

Take B6: the Unique amounted to 1.

For B7, the Unique amounted to 1.

The molecule B8 showed a Unique of 1.

B9 displayed a Unique of 1.

B10 displayed a Unique of 1.

In the case of B11, the Unique is listed as 1.

As to B12, the Unique is given as 1.
